Measured values published in paper PMC12903445.

B1: αKNL2-C (C-terminal region of Arabidopsis KINETOCHORE NULL2, aa 364–598), Venus-half fusion (domain or fragment, UniProt F4KCE9 364-598)
chain: NYSGTKVKSAENKRKIDASKLQSPTSNVAEHSKEGLNNAKSNDVEKDVCVAINNEVISPVKGFGKRLSGTDVERLTSKNATKESLTSVQRKGRVKVSKAFQDPLSKGKSKKSEKTLQSNSNVVEPMNHFRSEAEEAEENLSWEKIKRKIDFDVEVTPEKKVKQQKTNAASTDSLGQKRSRSGRVLVSSLEFWRNQIPVYDMDRNLIQVKDGSETNSAPSKGKGSDSRKRRNLKIK
B2: αKNL2-C^Mut-SUMO (SUMOylation-deficient αKNL2-C: K378R, K474R, K511R, SIMs 547–551 and 568–572 deleted), Venus-half fusion (domain or fragment, UniProt F4KCE9)
chain: NYSGTKVKSAENKRRIDASKLQSPTSNVAEHSKEGLNNAKSNDVEKDVCVAINNEVISPVKGFGKRLSGTDVERLTSKNATKESLTSVQRKGRVKVSKAFQDPLSKGKSKRSEKTLQSNSNVVEPMNHFRSEAEEAEENLSWEKIKRRIDFDVEVTPEKKVKQQKTNAASTDSLGQKRSRSGRLEFWRNQIPVYDMDRNDGSETNSAPSKGKGSDSRKRRNLKIK
B3: αKNL2-C^K474R/K511R, Venus-half fusion (domain or fragment, UniProt F4KCE9 364-598)
chain: B1 chain with K111R, K148R

How the values were obtained:
[1] = target: ULP1d-C (C-terminal region of ULP1d), Venus-half fusion (A. thaliana); assay: split reporter; BiFC with Venus halves (VENn/VENc) in N. benthamiana leaf epidermal cells co-infiltrated with A. tumefaciens GV3101; HC-Pro co-expressed; both orientations tested
[2] = target: ULP1d-C (C-terminal region of ULP1d), Venus-half fusion (A. thaliana); assay: co-IP; N. benthamiana leaves co-expressing HA- and cMYC-tagged (Venus-half) constructs; total protein extracts precipitated with anti-HA magnetic beads (HA-trap, Chromotek); blot with anti-cMYC

Binder	binding [1]	binding [2]
B1	binds	binds
B2	no binding	–
B3	no binding	–

Changes are numbered by the printed parent chain. In names and notes the source's numbering stands. These are yes or no findings as the source states them, for the method shown. In cells and extracts the contact can be indirect. A result given as binding can be weak or reduced; the word gives no strength. Tags and fused reporters may be left off the sequences shown.
